From paper PMC11423144
No constants are given. Whether binding was seen depends on the method and setting. In cells and extracts the contact can be indirect. Some binding calls cover weakened binding; strength is not graded here. Tags and fused reporters may be left off the sequences shown.

By UniProt entry, the sequences of proteins in these tests, tags left out.
UniProt P11142: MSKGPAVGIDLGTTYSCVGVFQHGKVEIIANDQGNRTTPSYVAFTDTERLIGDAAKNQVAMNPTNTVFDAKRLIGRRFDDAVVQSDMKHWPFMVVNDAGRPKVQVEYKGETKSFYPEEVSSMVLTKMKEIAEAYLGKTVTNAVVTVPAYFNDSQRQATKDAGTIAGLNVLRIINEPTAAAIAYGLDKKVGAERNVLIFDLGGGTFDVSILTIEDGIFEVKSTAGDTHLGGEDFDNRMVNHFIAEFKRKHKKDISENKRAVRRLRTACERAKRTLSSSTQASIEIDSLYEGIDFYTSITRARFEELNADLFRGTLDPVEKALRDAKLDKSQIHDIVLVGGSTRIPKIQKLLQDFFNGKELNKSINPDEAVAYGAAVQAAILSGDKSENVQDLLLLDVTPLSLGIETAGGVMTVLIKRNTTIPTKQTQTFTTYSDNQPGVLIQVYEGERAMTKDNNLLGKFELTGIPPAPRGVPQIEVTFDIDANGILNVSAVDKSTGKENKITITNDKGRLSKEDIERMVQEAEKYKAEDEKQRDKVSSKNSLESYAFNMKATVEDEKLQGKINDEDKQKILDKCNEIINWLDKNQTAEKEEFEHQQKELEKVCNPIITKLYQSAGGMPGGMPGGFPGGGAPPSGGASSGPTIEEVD

Target: T1, human SHISA3 (human) (UniProt A0PJX4)
T1 sequence: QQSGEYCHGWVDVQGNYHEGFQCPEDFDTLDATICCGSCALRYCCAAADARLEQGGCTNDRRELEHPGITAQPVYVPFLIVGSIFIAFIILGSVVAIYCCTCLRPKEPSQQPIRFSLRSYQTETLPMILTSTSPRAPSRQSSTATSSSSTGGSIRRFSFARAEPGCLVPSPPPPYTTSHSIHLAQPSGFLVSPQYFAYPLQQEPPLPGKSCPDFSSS
Assay: co-IP; human SHISA3 and candidate interacting proteins in HEK-293T cells; immunoprecipitation from lysate, immunoblot

binding: binds
Substance: Hspa8 (HEK-293T experiment) (from UniProt P11142 1-646)
